For data set [1], the system named is swine ear skin. The conditions noted are these: Active. The procedure: An in-vitro skin penetration study was conducted to determine which combination of parameters results in the maximum amount of active substance, e.g., color formulation, being delivered into the skin, i.e., the dermis and epidermis, but not through the skin, i.e., beneath the epidermis.
The in-vitro skin penetration study generally included the following test procedure. Decoration ink, as in embodiments of the present invention, was applied on a piece of swine ear skin. The swine skin was excised to full thickness (epidermis and dermis) to an approximate depth of 500-1000 μm. The skin was removed from the ear within a few hours of sacrifice and was either used immediately or stored frozen for a period of no longer than 2-3 weeks. The ink-applied swine skin was thereafter placed in vertical diffusion cells, in which the skin membrane separated the physically and electrically isolated anode and cathode chambers from the receptor phase. See, e.g., P. Glikfeld, et al., “A new system for in vitro studies of iontophoresis,” Pharma. Res. 5: 443-446 (1988). Alternatively, the swine skin may be placed in modified side-by-side cells of a newer design. The vertical cells' receptor compartment contained physiologically buffered saline (PBS) at pH 7. Then, two electrodes, i.e., anode and cathode, were placed on the swine skin over the ink. The exposed area of skin in each electrode chamber was 0.64-0.67 cm^2.
In each experiment of the study, preparation with electric current (“Active”) and without electric current (“Passive”) were tested. Exposure period was typically 20-30 minutes, but can be altered according to the designated time of patch application. Six replicates were performed per experiment. Prior to each experiment, the viability and integrity of the swine skin barrier function was checked via a measurement of transepidermal water loss (TEWL). Perturbation of the skin barrier, either by physical disruption, chemical attack, or because of disease, could severely compromise the role of the stratum corneum (“SC”).
At the end of the exposure period, the entire receptor compartment was drained and the solution reserved for subsequent analysis of the dye(s) and/or pigment(s). The swine skin was then removed from the receptor compartment, and the skin's surfaces carefully cleaned and dried. Subsequently, the stratum corneum (“SC”) beneath the cathode chamber was removed by 15 adhesive tape strippings (“TS”). The depth of penetration was measured by noting the number of tape strippings required to remove the ink. The ink was extracted from the respective tapes and assayed to yield a total uptake into the SC. […] The ink was determined quantitatively using customary analytical procedures (e.g., HPLC, UV-Vis spectrum, GC, radiolabeled detection, etc.), as applicable.
The in-vitro skin penetration study was conducted using an in-vitro modified Franz Cell System, equipped with the necessary components to exert micro-powered electric current, which can simulate the expected effect of the iontophoretic patch of the present invention.
In these experiments, the enhancing effect of iontophoresis and/or electroosmosis on skin penetration of different dyes was assessed. The assessment included evaluation of solubility and conductivity of the dyes followed by iontophoresis versus passive in-vitro skin penetration. The following properties were measured to determine the enhancing effect of iontophoretic induction on the dyes' skin penetration: uniformity of the dyeing by observation; and penetration depth by tape stripping.
The experiments performed in the first part of the study are described below. In these experiments, Hydroxyethyl cellulose with NaCl may comprise hydroxyethyl cellulose (Natrosol 250 HHBR, Hercules) at 1% wt., NaCl at 10% wt., and water at 98% wt.

Data set [2] has as its system swine skin. Kind of data set: In-vitro skin penetration, hydrogel patches on stretched skin (vertical diffusion cells without cell tops), tape stripping. Conditions: Active, heart shape, current = 500 μA/cm^2, skin cleaned with 10% lactic acid. Format: in vitro ADME. On the procedure:
In the second part of the in-vitro skin penetration study, the color application included the use of a hydrogel patch and dye FD&C Red no. 40 and additional dyes, Acid Blue 1 (Blue V) and Indocyanine green, on the swine skin. All chemicals used were analytical grade, obtained from standard supply houses (Sigma, VWR, etc.). […] In these experiments, the depth of penetration was tested for the additional dyes using iontophoresis and/or electroosmosis. Additionally, extensive work was done in order to establish a shaped tattoo that is sharp and has strong color imprint. The experiments were also directed to the effect of the application duration on the tattoo life span. The following properties of the tattoo were measured to determine the effects of iontophoresis on the dyes and pigments' skin penetration: uniformity of the dyeing by observation; penetration depth by tape stripping; and water durability by washing the skin with tap water.
The experiments performed in this second part of the study are described below. Experiments 2.1-2.8 and 2.10-2.14 were conducted on in-vitro swine skin. Experiments 2.9, 2.15, and 2.16 were conducted on in-vivo human skin. FIGS. 6-14 illustrate the body decoration results from the experiments.
This experiment was conducted to determine the dye penetration depth of stretched skin, as would be the case on the subject's body area. In the vertical diffusion cells without the cell tops, the skin was stretched with the cell clamps. To increase the water content of the hydrogel in the patches, the hydrogel was soaked with ddw for 2 minutes. Excess water was then absorbed. Tissue paper heart-shaped pieces were soaked in Blue V solution (100 mg/ml in ddw). The blue heart shapes were placed on the patches' hydrogel and removed a few seconds later, leaving a blue heart-shaped imprint on the hydrogel. The hydrogel patches with the blue heart-shaped imprint were placed on the skin after the skin was cleaned with 10% lactic acid. […] The dye penetration depth was determined by tape stripping. […]

Data set [3] deals with human skin. In words: In-vivo human skin tattoo with imprinted hydrogel patches. Conditions: human study, 50 mg/ml in ddw.
The mark [4] stands for this setting: Exp 1.10, Blue no. 1 40 mg/ml in ethanol + 20% ddw, Yellow no. 6 and Red no. 40 20 mg/ml in ethanol + 30% ddw, dried color + gel, current limited to 335 mA (500 μA/cm^2), skin without Stratum Corneum.
Setting [5] is: Exp 1.8, 20 mg/ml in ethanol + 30% ddw, dried color + gel, current unlimited, skin cleaned with 70% ethanol, full skin.
The mark [6] stands for this setting: Exp 2.15, Active, star shape, with polyester as a partition, 0.04 mAmp, 40 min, skin cleaned with 10% lactic acid.
Where [7] appears, read: Exp 2.16, Active With polyester, star shape, 0.04 mAmp, 60 min, skin cleaned with 10% lactic acid.
Where [8] appears, read: Exp 2.16, Active Without polyester, star shape, 0.04 mAmp, 60 min, skin cleaned with 10% lactic acid.
[9] abbreviates: Exp 2.9, Active, cathode, heart shape, voltage = 3 volt, 20 min, forearm cleaned with 10% lactic acid.

Where two headings read alike, the source gives them in different places.

In the case of `CC1(C)C(/C=C/C=C/C=C/C=C2\N(CCCCS(=O)(=O)O)c3ccc4ccccc4c3C2(C)C)=[N+](CCCCS(=O)(=O)[O-])c2ccc3ccccc3c21` [Green, Indocyanine green, reference compound], the “Uniformity of the dyeing by observation” value in data set [1] (Exp 2.10, 25 mg/ml in 100% ethanol, dried dye + gel, current = 500 μA/cm^2, skin cleaned with 10% lactic acid, 30 min) is “Uniform dyeing”; in data set [1] (Exp 2.7, 2 mg/ml in ethanol with 40% ddw, dried dye + gel, current = 500 μA/cm^2, skin cleaned with 10% lactic acid, 30 min), “Uniform dyeing”.
Take `O=S(=O)([O-])c1ccc(N=Nc2c(O)ccc3cc(S(=O)(=O)[O-])ccc23)cc1.[Na+].[Na+]` [Yellow no. 6, FD&C Yellow no. 6]: the “Uniformity of the dyeing by observation, after 1 hour” value in data set [1] (Exp 1.10, 20 mg/ml in ethanol + 30% ddw, dried color + gel, current limited to 335 mA (500 μA/cm^2), skin without Stratum Corneum, after 1 hour) is on record as “hour uniform dyeing was”. Also, the “Uniformity of the dyeing by observation” value is recorded as “Spot dyeing but after 1” in data set [1] (setting [4]); “Spot dyeing” in data set [1] (setting [5]); “Spot dyeing” in data set [1] (Exp 1.9, 20 mg/ml in ethanol + 30% ddw, dried color + gel, current limited to 335 mA (500 μA/cm^2), skin cleaned with 70% ethanol, full skin).
For the molecule `CCN(CC)c1ccc(C(=C2C=CC(=[N+](CC)CC)C=C2)c2ccc(S(=O)(=O)[O-])cc2S(=O)(=O)[O-])cc1.[Na+]` [Blue V, Acid Blue 1], the “Uniformity of the dyeing by observation” value in data set [1] (Exp 2.1, 20 mg/ml in ethanol with 20% ddw, dried dye + gel, current = 500 μA/cm^2, skin cleaned with 10% lactic acid, 30 min) is given as “Uniform dyeing”; in data set [2] (Exp 2.13, hydrogel with NaCl, 100 mg/ml in ddw with 10% ethanol, 20 min), “Uniform dyeing”; in data set [2] (Exp 2.6, 100 mg/ml in ddw, stretched skin, hydrogel soaked with ddw 2 minutes, 30 min), “Uniform sharp heart shape”; in data set [2] (Exp 2.8, 100 mg/ml in ddw, hydrogel soaked in ddw for only few seconds), “Uniform heart shape”; in data set [3] (setting [6]), “Uniform star shape dyeing”; in data set [3] (setting [7]), “Uniform star shape dyeing”. For the same molecule, the “Uniformity of the dyeing by observation” value was “Uniform star shape dyeing” in data set [3] (setting [8]) and “Uniform heart shape” in data set [3] (setting [9]). For the same molecule, the “Color strength of the dyeing by observation” value in data set [3] (setting [6]), in data set [3] (setting [7]), in data set [3] (setting [8]) and in data set [3] (setting [9]) was “Strong color” in each case.
As for `CCN(Cc1cccc(S(=O)(=O)[O-])c1)c1ccc(C(=C2C=CC(=[N+](CC)Cc3cccc(S(=O)(=O)[O-])c3)C=C2)c2ccccc2S(=O)(=O)[O-])cc1.[Na+].[Na+]` [Blue no. 1, FD&C Blue no. 1], the “Uniformity of the dyeing by observation” value was “Spot dyeing” in data set [1] (setting [4]); “Spot dyeing” in data set [1] (Exp 1.4, 40 mg/ml in ethanol + 20% ddw, dried color + gel, current unlimited, full skin, 30 min); “Uniform dyeing” in data set [1] (Exp 1.6, 40 mg/ml in ethanol + 20% ddw, dried color + gel, current unlimited, skin without Stratum Corneum); “Spot dyeing” in data set [1] (Exp 1.7, 40 mg/ml in ethanol + 20% ddw, dried color + gel, current unlimited, skin cleaned with Acetone, skin without Stratum Corneum).
As for `COc1cc(S(=O)(=O)[O-])c(C)cc1N=Nc1c(O)ccc2cc(S(=O)(=O)[O-])ccc12.[Na+].[Na+]` [Red no. 40, FD&C Red no. 40], the “Uniformity of the dyeing by observation” value was “Spot dyeing” in data set [1] (setting [4]); “Spot dyeing” in data set [1] (Exp 1.11, 20 mg/ml in ethanol + 30% ddw, dried color + gel, current limited to 335 mA (500 μA/cm^2), skin cleaned with 10% lactic acid, full skin); “Spot dyeing” in data set [1] (Exp 1.12, 20 mg/ml in ethanol + 30% ddw, dried color + gel, current limited to 335 mA (500 μA/cm^2), skin cleaned with 5% lactic acid, full skin); “Spot dyeing” in data set [1] (Exp 1.13, 20 mg/ml in ethanol + 30% ddw, dried color + hydrogel, current limited to 335 mA, after 7 min voltage limited to 3 V, skin without Stratum Corneum); “Spot dyeing” in data set [1] (setting [5]).

The values above are taken from US20040267283A1, “Method, device and kit for body decoration” (priority 2003, published 2004).
